Reference: PMC10281466
No constants are given. Whether binding was seen depends on the method and setting. Binding seen in cells or lysates may run through a third protein. Here binding means that the protein was enriched with, or labelled near, the bait; the list need not be complete. Blank lines part the entries; values can stand above or below the molecule they belong to.

Molecular target: Flag-CDK5 purified from A549 cells (human) (UniProt Q00535)
Assay: affinity purification with mass spectrometry; Flag-CDK5 purified from A549 cells; associated proteins analysed by mass spectrometry

binding: binds
Molecule: STAT3 (from UniProt P40763 1-770)

binding: binds
B1: CABLES1 (protein, UniProt Q8TDN4 1-633)
chain: MAAAAAAATTAACSSGSAGTDAAGASGLQQPPPQPQPQPAAAAPAQPPPEPPRKPRMDPRRRQAALSFLTNISLDGRLPPQDAEWGGGEEGGAAKPGAGGACGARTRFSLLAAAERGGCIALAAPGTPAAGLAAGSGPCLPQPSSLPPLIPGGHATVSGPGVARGFASPLGAGRASGEQWQPPRPAPLAACAQLQLLDGSGAAGQEELEEDDAFISVQVPAAAFLGSGTPGSGSGSRGRLNSFTQGILPIAFSRPTSQNYCSLEQPGQGGSTSAFEQLQRSRRRLISQRSSLETLEDIEENAPLRRCRTLSGSPRPKNFKKIHFIKNMRQHDTRNGRIVLISGRRSFCSIFSVLPYRDSTQVGDLKLDGGRQSTGAVSLKEIIGLEGVELGADGKTVSYTQFLLPTNAFGARRNTIDSTSSFSQFRNLSHRSLSIGRASGTQGSLDTGSDLGDFMDYDPNLLDDPQWPCGKHKRVLIFPSYMTTVIDYVKPSDLKKDMNETFKEKFPHIKLTLSKIRSLKREMRKLAQEDCGLEEPTVAMAFVYFEKLALKGKLNKQNRKLCAGACVLLAAKIGSDLKKHEVKHLIDKLEEKFRLNRRELIAFEFPVLVALEFALHLPEHEVMPHYRRLVQSS
